The other results are listed elsewhere or left out. Repeats are few or missing, and single values can be far off.
Tested on: Danio rerio embryo (th-expressing DA/NA neurons)
Assay: percentage of embryos with altered th expression (decrease or increase vs DMSO control) in brain region; higher = more embryos with altered dopaminergic/noradrenergic marker expression; extreme values may be limits of the assay
Settings: treatment window: 24-72 hpf, fixed 96 hpf
Experimental: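 Primary screen in zebrafish embryos (AB/TL). Embryos were treated with each compound at 1, 3, 10 or 30 µM in E3/PTU with 1% DMSO from 24 to 72 hpf, washed out, and fixed at 96 hpf. th (tyrosine hydroxylase) expression was scored by whole-mount in situ hybridization per DA/NA brain region (strong decrease, decrease, normal, increase, strong increase), with 7-16 embryos per treatment and no independent replicates. The value is the percentage of scored embryos whose th expression was altered (decrease or increase) relative to DMSO controls.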

Measured: percentage of embryos with altered th expression

O=c1c(Cl)c(C(F)(F)F)oc2ccc([N+](=O)[O-])cc12 [Namoline]
0%: 1 µM, brain region: DC1 | 1 µM, brain region: DC2 | 1 µM, brain region: DC3 | 1 µM, brain region: DC 4,5,6 | 1 µM, brain region: LC | 1 µM, brain region: MO | 1 µM, brain region: Pretectum | 3 µM, brain region: DC1 | 3 µM, brain region: DC3 | 3 µM, brain region: LC | 3 µM, brain region: MO | 3 µM, brain region: Pretectum | 10 µM, brain region: DC1 | 10 µM, brain region: DC2 | 10 µM, brain region: MO | 30 µM, brain region: telencephalon
33.3%: 10 µM, brain region: LC
83.3%: 10 µM, brain region: DC 4,5,6
28.6%: 3 µM, brain region: DC 4,5,6
14.3%: 1 µM, brain region: telencephalon | 3 µM, brain region: DC2 | 3 µM, brain region: telencephalon
25%: 10 µM, brain region: DC3 | 10 µM, brain region: telencephalon
8.33%: 10 µM, brain region: Pretectum
